Paper PMC8079763 (2021)
These are yes or no findings as the source states them, for the method shown. Where a sequence is shown, tags or fusion partners need not be part of it.

Molecular target: T1, GST tagged ecto-basigin (recombinant mouse basigin) (mouse (C57BL/6J)) (UniProt P18572)
T1 sequence: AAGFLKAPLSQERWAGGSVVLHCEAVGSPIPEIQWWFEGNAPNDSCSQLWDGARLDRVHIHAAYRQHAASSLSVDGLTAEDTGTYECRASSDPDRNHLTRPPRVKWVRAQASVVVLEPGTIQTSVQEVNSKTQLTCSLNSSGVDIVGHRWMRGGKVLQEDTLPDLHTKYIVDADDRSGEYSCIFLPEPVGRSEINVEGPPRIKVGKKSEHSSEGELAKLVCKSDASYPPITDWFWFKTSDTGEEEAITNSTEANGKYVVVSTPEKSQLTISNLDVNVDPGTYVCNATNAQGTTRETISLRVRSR
Experiment: SPR; Biacore X100; recombinant mouse basigin (GST tagged) immobilised on CM5 chip by amine coupling; PyEBL regions as analytes; HBS-EP+ (10 mM HEPES pH 7.4, 150 mM NaCl, 3 mM EDTA, 0.05% P20); single-cycle kinetics, 1:1 binding model; both purified

“recombinant PyEBL R3-5 (G437-C717) (Plasmodium yoelii 17X) (domain or fragment)” was tested, and the binding was “no binding (tested: 1000 nM)”.
For “recombinant PyEBL R6, the C-terminal Cysteine-rich domain (C717-N788) (Plasmodium yoelii 17X) (domain or fragment)”, the binding was “no binding (tested: 1000 nM)”.
